{"source": "PubChem BioAssay AID504834", "about": "(National Center for Advancing Translational Sciences (NCATS), 2011)", "note": "Among all 320,000 compounds or so, about 22,000 (6.9%) were called active. This list was built around the results that the source calls inconclusive (neither active nor inactive); the mix of calls is not that of the screen. Calls follow the shape of the dose curve; as a rule, active = well fitted inhibition curve with a large enough effect; inconclusive = small, poorly fitted or top-dose-only effect, or another doubt; inactive = no such curve, though single readings can be large or run the other way. Potencies beside an inconclusive call are fits to weak or partial responses and may not hold up. % is scaled to controls: 0 for no effect and ±100 for the full control effect; potency is read from the fitted curve at half-maximal effect.", "data": [{"test": "Primary qHTS for delayed death inhibitors of the malarial parasite plastid, 96 hour incubation", "conditions": "P. falciparum luciferase reporter growth; series mostly up to 28.7 µM; activity change, negative = inhibition: at the top concentration", "how_it_was_run": "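Parasite growth measured via integrated firefly luciferase reporter in P. falciparum. Infected erythrocytes at 2% hematocrit, 0.05% parasitemia final were treated 96 hours at 37 C under 5% CO2, and luminescence was read.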", "values": [{"smiles": "O=C(CN1CCC(C(=O)c2ccc(F)cc2)CC1)Nc1ccc(F)cc1", "Potency": "inconclusive: 0.0522 µM [inhibitor, full curve, poor fit]"}, {"smiles": "NS(=O)(=O)c1ccc(CNC(=O)CSc2ccccc2)cc1", "Potency": "inconclusive: 10.4 µM [inhibitor, single point]"}, {"smiles": "Cc1c(Cl)cccc1NC(=O)Nc1ccc(C(N)=O)cc1", "activity change, negative = inhibition": "inactive: 5.45%"}, {"smiles": "C=C(C)C(=O)N1CC2(CC(c3cccc(NC(=O)COc4ccc(Cl)cc4)c3)=NO2)C[C@@H]1C(N)=O", "note": "(stereo partly drawn)", "Potency": "inconclusive: 10.4 µM [inhibitor, single point]"}, {"smiles": "Cc1cc(-c2nc(C)c(-c3nnc(SCC(=O)Nc4ccc(Cl)cc4)n3C)s2)no1", "activity change, negative = inhibition": "inactive: 40.8%"}, {"smiles": "CC(SCc1ccccc1)C(=O)Nc1ccccc1", "note": "(stereo not drawn)", "Potency": "inconclusive: 18.5 µM [inhibitor, single point]"}, {"smiles": "O=C(Nc1nccs1)c1ccc[nH]c1=O", "activity change, negative = inhibition": "inactive: 9.32%"}, {"smiles": "Cc1cc(=O)n(CC=C(Cl)Cl)c2ccccc12", "activity change, negative = inhibition": "inactive: -29%"}, {"smiles": "CCOC(=O)Cn1c2ccc(C)cc2c2nc(C)sc21", "Potency": "inconclusive: 4.15 µM [inhibitor, single point]"}, {"smiles": "O=C(Cc1cccs1)N1CCN(S(=O)(=O)c2ccc(F)cc2)CC1", "Potency": "inconclusive: 10.4 µM [inhibitor, single point]"}, {"smiles": "Cc1nc(N2CCN(c3ccccn3)CC2)c2c(C)c(C(=O)Nc3ccc(F)c(Cl)c3)sc2n1", "Potency": "inconclusive: 18.5 µM [inhibitor, single point]"}, {"smiles": "COc1cc(NC(=O)[C@@H]2CCCN2S(=O)(=O)c2cccc3cccnc23)cc(OC)c1OC", "activity change, negative = inhibition": "inactive: 88.8%"}, {"smiles": "COC(=O)C1=CC(C(=O)c2cccs2)=NN(c2ccc(OC)cc2)C1C(=O)OC", "note": "(stereo not drawn)", "Potency": "inconclusive: 18.5 µM [inhibitor, single point]"}, {"smiles": "Cc1cccc(NS(=O)(=O)c2ccc([N+](=O)[O-])cc2)n1", "Potency": "inconclusive: 18.5 µM [inhibitor, single point]"}, {"smiles": "FC(F)(F)c1ccccc1N1CC1c1ccncc1", "note": "(stereo not drawn)", "activity change, negative = inhibition": "inactive: 2.03%"}, {"smiles": "COCCn1c(Br)nc2c1c(=O)n(C)c(=O)n2C", "activity change, negative = inhibition": "inactive: 454%"}, {"smiles": "COc1ccc(CCNC(=O)Cn2c(=O)n(CCCC(=O)NCc3ccco3)c(=O)c3sccc32)cc1OC", "Potency": "inconclusive: 1.47 µM [inhibitor, partial curve, poor fit]"}, {"smiles": "CCN(CC(=O)Nc1ccccc1C(F)(F)F)C(=O)Cc1sc(C)nc1-c1ccc(F)cc1", "Potency": "inconclusive: 13.1 µM [inhibitor, single point]"}, {"smiles": "COCCNC(=O)c1ccc(N(C)S(=O)(=O)c2ccc(OC)c(OC)c2)cc1", "activity change, negative = inhibition": "inactive: 11.2%"}, {"smiles": "COC(=O)c1ccc(CNC(=O)CNC(=O)c2sc3ccccc3c2Cl)cc1", "activity change, negative = inhibition": "inactive: 7.07%"}, {"smiles": "CC(=O)Nc1ccc(C(F)(F)F)cc1Cl", "activity change, negative = inhibition": "inactive: 35.6%"}, {"smiles": "CC(C)N(C(=O)N1CCC(c2nc(-c3ccncc3)no2)CC1)C(C)C", "Potency": "inconclusive: 9.28 µM [inhibitor, partial curve, poor fit]"}, {"smiles": "COc1ccc(CNC(=O)CCCCCNC(=O)N2CCn3c2nc2ccccc23)cc1", "Potency": "inconclusive: 13.1 µM [inhibitor, single point]"}, {"smiles": "Cc1cc(C)nc(N/C(=N\\S(=O)(=O)Cc2ccccc2)Nc2ccccc2Br)n1", "activity change, negative = inhibition": "inactive: -1%"}, {"smiles": "O=C(CN1C2=NCCN2c2ccccc21)c1cccs1", "Potency": "inconclusive: 18.5 µM [inhibitor, single point]"}, {"smiles": "CCOc1ccccc1NC(=O)Nc1cc(C(=O)O)ccc1C", "Potency": "inconclusive: 6.57 µM [inhibitor, partial curve, poor fit]"}, {"smiles": "CCOC(=O)C1CCN(C(=O)c2ccc(S(=O)(=O)Nc3ccccc3OC)cc2)CC1", "Potency": "active: 11.7 µM"}, {"smiles": "CC12CC3(C)CC(C)(C1)CC(NC(=O)N1CCCC1)(C2)C3", "Potency": "inconclusive: 9.28 µM [inhibitor, single point]"}, {"smiles": "COC(=O)c1c(-c2cccc(C)c2)csc1NC(=O)C1CCCO1", "note": "(stereo not drawn)", "activity change, negative = inhibition": "inactive: 4.08%"}, {"smiles": "CC(SCC(=O)Nc1ccccc1)c1nc2ccccc2c(=O)[nH]1", "note": "(stereo not drawn)", "Potency": "inconclusive: 18.5 µM [inhibitor, single point]"}, {"smiles": "COc1ccc(NC(=O)CS(=O)(=O)c2ccccc2Cl)cc1", "activity change, negative = inhibition": "inactive: 42.4%"}, {"smiles": "Cc1ccc(-n2nc3c(c2NC(=O)c2ccc4c(c2)OCO4)CS(=O)(=O)C3)cc1C", "Potency": "inconclusive: 18.5 µM [inhibitor, single point]"}, {"smiles": "CCOC(=O)c1cc2oc(C(c3nnnn3C3CCCCC3)N3CCOCC3)cc2[nH]1", "note": "(stereo not drawn)", "Potency": "active: 9.28 µM"}, {"smiles": "CNCCCOc1ccc(C(C)(C)c2ccccc2)cc1", "Potency": "active: 9.28 µM"}, {"smiles": "CCCCCOc1ccc(CSC2=NCCN2)cc1[N+](=O)[O-]", "Potency": "inconclusive: 3.7 µM [inhibitor, single point]"}, {"smiles": "CCCC1=C(C(=O)OCC)C(c2ccco2)C(C#N)=C(N)O1", "note": "(stereo not drawn)", "Potency": "inconclusive: 18.5 µM [inhibitor, single point]"}, {"smiles": "COC1OC(COC(=O)c2ccccc2)C(OC(=O)c2ccccc2)C1OC(=O)c1ccccc1", "note": "(stereo not drawn)", "Potency": "inconclusive: 10.4 µM [inhibitor, single point]"}, {"smiles": "COc1ccccc1/C=C1\\SC(N2CCC(C)CC2)=NC1=O", "activity change, negative = inhibition": "inactive: -5.71%"}, {"smiles": "COC(CN1C(=O)C(=O)/C(=C(/O)c2ccccc2)C1c1ccccn1)OC", "note": "(stereo not drawn)", "Potency": "inconclusive: 18.5 µM [inhibitor, single point]"}, {"smiles": "COc1cccc(C2CC(c3cccs3)=NN2C(=O)CSc2nc3ccccc3o2)c1OC", "note": "(stereo not drawn)", "Potency": "inconclusive: 16.5 µM [inhibitor, partial curve, poor fit]"}, {"smiles": "Cc1ccc(NC(=S)NC2CCSc3ccccc32)cc1", "note": "(stereo not drawn)", "Potency": "inconclusive: 8.28 µM [inhibitor, partial curve, poor fit]"}, {"smiles": "CC(=O)NC1=NN(C(C)=O)C(C)(c2ccco2)S1", "note": "(stereo not drawn)", "activity change, negative = inhibition": "inactive: -10.7%"}, {"smiles": "Cc1ccc(C(=O)NCC(=O)N/N=C/c2cccs2)cc1C", "Potency": "inconclusive: 18.5 µM [inhibitor, single point]"}, {"smiles": "Cc1ccc(NC(=S)NC2CCN(Cc3ccccc3)CC2)cc1C", "Potency": "inconclusive: 18.5 µM [inhibitor, single point]"}, {"smiles": "COc1cccc(/C=N/NC(=O)c2ccc(OCc3cccc(Br)c3)cc2)c1", "Potency": "inconclusive: 18.5 µM [inhibitor, single point]"}, {"smiles": "C=C(C)Cn1c(N2CC(C)CC(C)C2)nc2c1c(=O)[nH]c(=O)n2C", "note": "(stereo not drawn)", "Potency": "inconclusive: 16.5 µM [inhibitor, single point]"}, {"smiles": "C#CCOCCOCCOCCNc1nc(N2CCOCC2)nc(N2CCN(C(=O)[C@H]([C@@H](C)CC)n3cc([C@@H](N)CC(C)C)nn3)CC2)n1", "Potency": "active: 6.57 µM"}, {"smiles": "O=C(N/N=C/c1c(O)n(Cc2ccccc2)c(=O)[nH]c1=O)c1ccccc1", "Potency": "inconclusive: 18.5 µM [inhibitor, single point]"}, {"smiles": "Cn1/c(=N/N=C/c2ccc(Cl)c([N+](=O)[O-])c2)sc2ccccc21", "activity change, negative = inhibition": "inactive: 37.3%"}, {"smiles": "CC(/C=C1\\SC(=S)N(CCC(=O)Nc2ccc(O)cc2)C1=O)=C\\c1ccccc1", "activity change, negative = inhibition": "inactive: -2.54%"}, {"smiles": "C=CCN1C(=O)C(Cc2ccc(OC)cc2)S/C1=N/N=C/c1ccco1", "note": "(stereo not drawn)", "Potency": "inconclusive: 18.5 µM [inhibitor, single point]"}, {"smiles": "Cc1ccc(-c2ccc(=O)n(Cc3cc(C)ccc3C)n2)cc1", "activity change, negative = inhibition": "inactive: -2.69%"}, {"smiles": "Cc1ccc(C)c(NC(=O)c2ccc3c(c2)N(Cc2ccc(F)cc2)C(=O)CS3=O)c1", "note": "(stereo not drawn)", "activity change, negative = inhibition": "inactive: -11.5%"}, {"smiles": "C=C(C)CSc1nnc(-c2ccccc2)n1N", "activity change, negative = inhibition": "inactive: -21.7%"}, {"smiles": "Cc1nc2sccn2c(=O)c1S(=O)(=O)NCC(C)c1ccccc1", "note": "(stereo not drawn)", "Potency": "inconclusive: 11.7 µM [inhibitor, single point]"}, {"smiles": "CC(=O)Nc1ccc(S(=O)(=O)NCCC(=O)N2CCC(Cc3ccccc3)CC2)cc1", "Potency": "active: 5.22 µM"}, {"smiles": "CCCOc1ccc(-c2nnn(CC(=O)N3CCCCC3)n2)cc1", "activity change, negative = inhibition": "inactive: -15.4%"}, {"smiles": "COc1ccc(C2(O)CCN(C(=O)c3c(F)cccc3F)CC2)cc1", "Potency": "inconclusive: 0.586 µM [inhibitor, partial curve, poor fit]"}, {"smiles": "CC1(C)CC(=O)C(=CN2CCOCC2)C(=O)C1", "Potency": "inconclusive: 18.5 µM [inhibitor, single point]"}, {"smiles": "c1cnc(SCCOc2ccc3c(c2)CCC3)nc1", "activity change, negative = inhibition": "inactive: 326%"}, {"smiles": "COc1ccc(CCNC(=O)COc2ccc(S(=O)(=O)N3CCOCC3)cc2)cc1OC", "Potency": "inconclusive: 2.62 µM [inhibitor, full curve]"}, {"smiles": "CN(CCO)c1c2c(nc3cc(-c4cccc(F)c4)nn13)CCCC2", "Potency": "inconclusive: 4.15 µM [inhibitor, single point]"}, {"smiles": "c1ccc2c(c1)ncn2CCCCOc1ccc2c(c1)CCC2", "Potency": "active: 5.86 µM"}, {"smiles": "COc1cc(-c2cc(C(=O)Nc3ccncc3)c3ccccc3n2)cc(OC)c1OC", "Potency": "active: 4.15 µM"}, {"smiles": "Cc1ccccc1-n1nc(C)c2cc(C(=O)N3CCN(S(=O)(=O)c4ccc(Cl)cc4)CC3)sc21", "Potency": "active: 1.85 µM"}, {"smiles": "O=C(COc1ccc2c(c1)OCO2)Nc1ccc(Cl)cn1", "activity change, negative = inhibition": "inactive: 22.5%"}, {"smiles": "Cc1ccc(S(=O)(=O)NC2CCCCCC2)cc1C(N)=O", "Potency": "inconclusive: 13.1 µM [inhibitor, single point]"}, {"smiles": "Cc1cccn2c(CNCCCn3ncc4ccccc43)c(C(=O)N3CCCCC3)nc12", "Potency": "active: 14.7 µM"}, {"smiles": "COC(=O)N/N=C/c1c[nH]c2ccccc12", "activity change, negative = inhibition": "inactive: 44.3%"}, {"smiles": "COc1ccc(CCNC(=O)CSc2nc(N)cc(=O)[nH]2)cc1OC", "Potency": "inconclusive: 8.28 µM [inhibitor, partial curve]"}, {"smiles": "O=C(CCCSc1nc2ccccc2[nH]1)Nc1nnc(C2CC2)s1", "Potency": "inconclusive: 8.28 µM [inhibitor, partial curve]"}, {"smiles": "COc1cc(OC)c(C2Nc3ccccc3NC3=C2C(=O)CC(C)(C)C3)cc1OC", "note": "(stereo not drawn)", "Potency": "inconclusive: 18.5 µM [inhibitor, single point]"}, {"smiles": "Cc1ccc([C@@H]2[C@@H]3C(=O)N(C)C(=O)[C@@H]3[C@]3(Cc4ccccc4)C(=O)N(CCO)CC(=O)N23)o1", "Potency": "inconclusive: 0.0828 µM [inhibitor, full curve, poor fit]"}]}]}
